Data on one molecule can be found in patent US20240336674A1.

The assay has as its target Cyno Sema3A (cyno). Kind of assay: biosensor GLM chip (BioRad), kinetic binding assay.

Results are given in words; binding and its absence hold for the method and conditions named. Binding calls can cover weak binding; strength is not graded here.

B1: Antibody of the invention (clone I) (antibody, human IgG1, kappa, L234A L235A, V domains shown)
VH: EVQLVESGGGLVQPGGSLRLSCAASGFTFSSYYMSWVRQAPGKGLEWVSTIIKSGGYAYYPDSVKDRFTISRDNSKNTLYLQMSSLRAEDTAVYYCVRGGQGAMDYWGQGTTVTVSS
VL: EIVLTQSPATLSLSPGERATLSCRASQSIGDYLHWYQQKPGQAPRLLIKYASQSISGIPARFSGSGSGTDFTLTITSLEPEDFAVYYCQQGYSFPYTFGGGTKLEIKR
With B1, the binding result is listed as “binds”.
